Record: PubChem BioAssay AID1053209 (Peter MacCallum Cancer Centre, 2014)

Purpose: 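Follow-up of single siRNAs that strengthen doxorubicin killing in osteosarcoma cells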 (follow-up of hits)
System: mouse primary osteosarcoma cells
Knock-down reagent: single siRNA against mouse genes, 25 nM (text also states 40 nM)
Time to read-out: about 120 h (48 h before drug, then 72 h with drug)
Conditions: doxorubicin 100 nM (about IC30-40), added 48 h after transfection, for 72 h
Read-out: 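Viability measured by ATP luminescence with and without doxorubicin, each replicate scaled to non-targeting siRNA NT1, averaged over two replicates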
Scale: viability with doxorubicin, vs NT1: higher = more viable cells under doxorubicin; viability without drug, vs NT1: higher = more viable cells without drug
Call rule: 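Counted as active (class LC dox) if viability falls to 0.7 of NT1 or below under doxorubicin but stays within 0.7 to 1.1 without drug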
This is a random part of about 1,580 reagents. Of all reagents, 207 (13%) are marked active. 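Rows are single siRNAs; four siRNAs per gene were tested, a gene counting as confirmed only when at least two agree.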 Reagents against one gene are numbered here. Not all columns of the deposit are shown. No sequences are given here.

Rpl5 #1 → combined effect class = low viability with and without drug; viability with doxorubicin, vs NT1 = 0.44; viability without drug, vs NT1 = 0.69; outcome = inactive
Rpl5 #2 → combined effect class = low viability with and without drug; viability with doxorubicin, vs NT1 = 0.26; viability without drug, vs NT1 = 0.5; outcome = inactive
Rpl5 #3 → combined effect class = low viability with and without drug; viability with doxorubicin, vs NT1 = 0.21; viability without drug, vs NT1 = 0.45; outcome = inactive
Rpl5 #4 → combined effect class = low viability with and without drug; viability with doxorubicin, vs NT1 = 0.26; viability without drug, vs NT1 = 0.2; outcome = inactive
Cep55 #1 → combined effect class = normal viability with and without drug; viability with doxorubicin, vs NT1 = 0.8; viability without drug, vs NT1 = 0.9; outcome = inactive
Cep55 #2 → combined effect class = normal viability with and without drug; viability with doxorubicin, vs NT1 = 0.96; viability without drug, vs NT1 = 0.96; outcome = inactive
Cep55 #3 → combined effect class = normal viability with and without drug; viability with doxorubicin, vs NT1 = 0.81; viability without drug, vs NT1 = 0.91; outcome = inactive
Cep55 #4 → combined effect class = normal viability with and without drug; viability with doxorubicin, vs NT1 = 0.82; viability without drug, vs NT1 = 1; outcome = inactive
Sart1 #1 → combined effect class = low viability only with doxorubicin; normal without drug; viability with doxorubicin, vs NT1 = 0.54; viability without drug, vs NT1 = 0.72; outcome = active
Sart1 #2 → combined effect class = low viability with and without drug; viability with doxorubicin, vs NT1 = 0.48; viability without drug, vs NT1 = 0.66; outcome = inactive
Sart1 #3 → combined effect class = normal viability with and without drug; viability with doxorubicin, vs NT1 = 0.82; viability without drug, vs NT1 = 0.9; outcome = inactive
Sart1 #4 → combined effect class = normal viability with and without drug; viability with doxorubicin, vs NT1 = 0.8; viability without drug, vs NT1 = 0.92; outcome = inactive

Called active, of those listed so far:
Sart1 #1 → combined effect class = low viability only with doxorubicin; normal without drug; viability with doxorubicin, vs NT1 = 0.54; viability without drug, vs NT1 = 0.72; outcome = active

Additional results follow:
Snrk #1 → combined effect class = normal viability with and without drug; viability with doxorubicin, vs NT1 = 0.99; viability without drug, vs NT1 = 1; outcome = inactive
Snrk #2 → combined effect class = normal viability with and without drug; viability with doxorubicin, vs NT1 = 0.95; viability without drug, vs NT1 = 0.94; outcome = inactive
Snrk #3 → combined effect class = high viability only without drug; viability with doxorubicin, vs NT1 = 1.06; viability without drug, vs NT1 = 1.17; outcome = inactive
Snrk #4 → combined effect class = normal viability with and without drug; viability with doxorubicin, vs NT1 = 1.06; viability without drug, vs NT1 = 1.01; outcome = inactive
Birc2 #1 → combined effect class = normal viability with and without drug; viability with doxorubicin, vs NT1 = 1.06; viability without drug, vs NT1 = 0.97; outcome = inactive
Birc2 #2 → combined effect class = normal viability with and without drug; viability with doxorubicin, vs NT1 = 0.9; viability without drug, vs NT1 = 1; outcome = inactive
Birc2 #3 → combined effect class = normal viability with and without drug; viability with doxorubicin, vs NT1 = 0.99; viability without drug, vs NT1 = 1.02; outcome = inactive
Birc2 #4 → combined effect class = normal viability with and without drug; viability with doxorubicin, vs NT1 = 0.92; viability without drug, vs NT1 = 0.93; outcome = inactive
Ran #1 → combined effect class = low viability with and without drug; viability with doxorubicin, vs NT1 = 0.1; viability without drug, vs NT1 = 0.37; outcome = inactive
Ran #2 → combined effect class = low viability with and without drug; viability with doxorubicin, vs NT1 = 0.1; viability without drug, vs NT1 = 0.36; outcome = inactive
Ran #3 → combined effect class = low viability with and without drug; viability with doxorubicin, vs NT1 = 0.06; viability without drug, vs NT1 = 0.4; outcome = inactive
Ran #4 → combined effect class = low viability with and without drug; viability with doxorubicin, vs NT1 = 0.12; viability without drug, vs NT1 = 0.29; outcome = inactive
Psmb5 #1 → combined effect class = normal viability with and without drug; viability with doxorubicin, vs NT1 = 0.9; viability without drug, vs NT1 = 0.81; outcome = inactive
Psmb5 #2 → combined effect class = low viability with and without drug; viability with doxorubicin, vs NT1 = 0.19; viability without drug, vs NT1 = 0.52; outcome = inactive
Psmb5 #3 → combined effect class = low viability with and without drug; viability with doxorubicin, vs NT1 = 0.13; viability without drug, vs NT1 = 0.38; outcome = inactive
Psmb5 #4 → combined effect class = low viability with and without drug; viability with doxorubicin, vs NT1 = 0.17; viability without drug, vs NT1 = 0.44; outcome = inactive
